Laboratory results from article PMC6882365, “Directed evolution of the PcaV allosteric transcription factor to generate a biosensor for aromatic aldehydes” (Journal of Biological Engineering, 2019).

Experiments:
[1] = biological target: T1, PcaV (Streptomyces coelicolor) (UniProt Q9XAM6); test: EMSA; details: 5 mM protocatechuic acid (PCA), complex disrupted; EMSA: 50 mM Tris-HCl, 50 mM KCl, 5 mM MgCl2, 1 mM EDTA, 5% glycerol, 0.1 ug poly(dI-dC), 1 mM DTT, 30 C 20 min (+30 min with ligand); recombinant protein; protein details: N-terminal His-TEV, removed by TEV protease; label: 5' IRD700 on both strands
T1 sequence (looked up, limits assumed): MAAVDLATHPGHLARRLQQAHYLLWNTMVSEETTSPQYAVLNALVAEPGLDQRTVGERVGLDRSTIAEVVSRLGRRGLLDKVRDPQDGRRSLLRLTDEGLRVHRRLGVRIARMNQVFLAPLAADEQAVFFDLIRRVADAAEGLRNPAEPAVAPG

[2] = biological target: T2, Van2 I110V,M113S,N114A (Streptomyces coelicolor) (UniProt Q9XAM6); test: EMSA; details: EMSA: 50 mM Tris-HCl, 50 mM KCl, 5 mM MgCl2, 1 mM EDTA, 5% glycerol, 0.1 ug poly(dI-dC), 1 mM DTT, 30 C 20 min (+30 min with ligand), recombinant protein, protein details: N-terminal His-TEV, removed by TEV protease, label: 5' IRD700 on both strands
T2 sequence (looked up, limits assumed): T1 sequence (looked up, limits assumed) with I110V, M113S, N114A

TTGACTATACTCAGTGCCCTGACTATGATACT (double strand) [PV Probe (IR700 duplex)]
binding result [1]: no binding | binding result ([2]; 2.5-12.5 mM protocatechuic acid (PCA), disruption similar to vanillin): binds more weakly | binding result ([2]; 2.5-12.5 mM vanillin, partial disruption): binds more weakly

Substitutions are numbered along the chain they refer to. For at least one entry, the source does not settle the construct or the ends of the probe. For part of these data: No signal at the amounts used counts as a negative. Where a protein sequence is shown, tags need not be part of it. For part of these data: A weaker result is weaker than the reference pair of the same experiment.
